Test results: the supplement of paper PMC12819154, “High-throughput peptide-centric local stability assay extends protein–ligand identification to membrane proteins, tissues and bacteria” (Nature Structural & Molecular Biology, 2025)
The list shows a part of the results. Most values lie at the level of the controls, where differences are scatter.

The chains behind the UniProt entries cited, without tags or fusion partners. Where a name states a change or a piece, a line headed by the entry shows the natural chain unless it says otherwise.
UniProt Q8WV93: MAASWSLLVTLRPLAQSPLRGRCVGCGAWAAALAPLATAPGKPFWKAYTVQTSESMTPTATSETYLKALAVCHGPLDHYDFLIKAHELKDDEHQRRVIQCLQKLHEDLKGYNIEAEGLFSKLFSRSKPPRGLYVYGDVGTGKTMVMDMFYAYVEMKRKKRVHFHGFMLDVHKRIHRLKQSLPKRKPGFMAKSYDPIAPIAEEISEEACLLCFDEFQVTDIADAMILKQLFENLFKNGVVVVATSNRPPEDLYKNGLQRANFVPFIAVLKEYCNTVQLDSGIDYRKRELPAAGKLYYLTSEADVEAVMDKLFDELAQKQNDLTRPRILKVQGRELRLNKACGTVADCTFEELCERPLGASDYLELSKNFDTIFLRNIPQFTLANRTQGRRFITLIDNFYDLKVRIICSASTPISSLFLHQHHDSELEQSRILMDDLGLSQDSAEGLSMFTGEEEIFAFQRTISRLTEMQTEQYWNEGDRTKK
UniProt Q8TAP6: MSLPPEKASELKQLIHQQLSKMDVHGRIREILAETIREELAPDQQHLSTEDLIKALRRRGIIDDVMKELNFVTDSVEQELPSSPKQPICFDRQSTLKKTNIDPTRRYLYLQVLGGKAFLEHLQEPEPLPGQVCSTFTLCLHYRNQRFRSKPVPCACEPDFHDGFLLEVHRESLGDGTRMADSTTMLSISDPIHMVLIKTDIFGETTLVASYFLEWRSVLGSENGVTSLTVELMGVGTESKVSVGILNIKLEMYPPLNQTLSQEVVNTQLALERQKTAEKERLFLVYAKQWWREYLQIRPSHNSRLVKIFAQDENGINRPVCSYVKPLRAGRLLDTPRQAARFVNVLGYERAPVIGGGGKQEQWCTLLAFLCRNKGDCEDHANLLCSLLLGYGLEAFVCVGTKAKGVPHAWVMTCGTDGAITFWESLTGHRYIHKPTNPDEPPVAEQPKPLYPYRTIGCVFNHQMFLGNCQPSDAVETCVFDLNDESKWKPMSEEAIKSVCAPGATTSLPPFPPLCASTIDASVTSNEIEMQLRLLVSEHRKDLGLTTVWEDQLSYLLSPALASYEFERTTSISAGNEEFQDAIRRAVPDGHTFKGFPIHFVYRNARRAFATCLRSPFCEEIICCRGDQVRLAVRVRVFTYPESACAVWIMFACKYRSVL
UniProt Q8WWZ3: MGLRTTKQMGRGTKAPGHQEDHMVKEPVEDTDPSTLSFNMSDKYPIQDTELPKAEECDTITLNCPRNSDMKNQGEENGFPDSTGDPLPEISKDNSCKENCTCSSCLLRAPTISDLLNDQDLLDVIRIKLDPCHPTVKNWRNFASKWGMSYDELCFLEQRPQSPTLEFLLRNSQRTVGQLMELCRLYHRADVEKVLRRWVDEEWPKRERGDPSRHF
UniProt Q8TDM6: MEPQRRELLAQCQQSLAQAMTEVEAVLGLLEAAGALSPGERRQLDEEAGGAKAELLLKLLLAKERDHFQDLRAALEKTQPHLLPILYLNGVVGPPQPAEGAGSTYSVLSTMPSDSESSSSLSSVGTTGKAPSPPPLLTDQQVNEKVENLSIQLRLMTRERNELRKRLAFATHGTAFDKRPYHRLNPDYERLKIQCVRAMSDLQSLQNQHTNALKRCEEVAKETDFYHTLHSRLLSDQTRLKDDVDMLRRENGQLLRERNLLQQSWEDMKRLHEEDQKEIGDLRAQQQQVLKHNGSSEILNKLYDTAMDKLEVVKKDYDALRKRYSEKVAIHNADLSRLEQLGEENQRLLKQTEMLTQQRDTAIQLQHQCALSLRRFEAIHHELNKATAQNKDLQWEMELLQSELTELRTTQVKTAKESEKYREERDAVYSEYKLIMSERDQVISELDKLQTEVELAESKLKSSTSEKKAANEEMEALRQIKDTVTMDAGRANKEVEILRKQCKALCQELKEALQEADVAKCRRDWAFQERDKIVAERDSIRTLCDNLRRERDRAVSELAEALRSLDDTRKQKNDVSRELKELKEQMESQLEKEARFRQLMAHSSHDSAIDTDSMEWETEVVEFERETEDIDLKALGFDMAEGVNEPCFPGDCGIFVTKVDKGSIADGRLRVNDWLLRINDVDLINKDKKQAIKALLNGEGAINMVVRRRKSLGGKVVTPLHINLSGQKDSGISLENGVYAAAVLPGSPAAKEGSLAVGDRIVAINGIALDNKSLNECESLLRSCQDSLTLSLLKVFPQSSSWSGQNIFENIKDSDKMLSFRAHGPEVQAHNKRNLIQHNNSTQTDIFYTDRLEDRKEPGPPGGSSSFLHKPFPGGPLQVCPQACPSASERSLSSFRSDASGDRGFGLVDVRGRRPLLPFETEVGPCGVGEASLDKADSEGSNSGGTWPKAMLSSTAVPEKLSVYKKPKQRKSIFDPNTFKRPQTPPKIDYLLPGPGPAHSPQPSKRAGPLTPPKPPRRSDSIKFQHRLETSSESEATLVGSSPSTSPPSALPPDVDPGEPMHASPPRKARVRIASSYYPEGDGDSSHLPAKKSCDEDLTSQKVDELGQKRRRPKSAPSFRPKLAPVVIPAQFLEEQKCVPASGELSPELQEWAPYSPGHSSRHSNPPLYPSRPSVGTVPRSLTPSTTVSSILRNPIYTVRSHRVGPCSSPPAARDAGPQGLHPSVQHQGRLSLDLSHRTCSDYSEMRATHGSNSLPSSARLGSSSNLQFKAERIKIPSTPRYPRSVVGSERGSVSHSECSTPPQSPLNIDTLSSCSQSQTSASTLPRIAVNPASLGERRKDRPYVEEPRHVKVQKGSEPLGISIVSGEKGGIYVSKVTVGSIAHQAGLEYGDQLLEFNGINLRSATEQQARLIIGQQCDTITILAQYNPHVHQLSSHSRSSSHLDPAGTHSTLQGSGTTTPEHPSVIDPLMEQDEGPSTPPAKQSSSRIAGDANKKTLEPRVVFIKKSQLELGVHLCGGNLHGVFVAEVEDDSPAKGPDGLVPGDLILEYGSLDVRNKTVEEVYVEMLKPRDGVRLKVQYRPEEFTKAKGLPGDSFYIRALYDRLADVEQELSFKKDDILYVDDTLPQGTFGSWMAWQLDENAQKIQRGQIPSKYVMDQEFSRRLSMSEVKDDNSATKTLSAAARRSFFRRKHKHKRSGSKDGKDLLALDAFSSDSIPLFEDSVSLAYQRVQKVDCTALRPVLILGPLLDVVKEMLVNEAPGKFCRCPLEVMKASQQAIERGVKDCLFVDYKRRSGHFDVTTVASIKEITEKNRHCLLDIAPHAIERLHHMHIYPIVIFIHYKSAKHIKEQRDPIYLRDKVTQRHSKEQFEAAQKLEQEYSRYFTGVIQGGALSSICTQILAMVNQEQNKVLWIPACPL
UniProt Q8WUJ0: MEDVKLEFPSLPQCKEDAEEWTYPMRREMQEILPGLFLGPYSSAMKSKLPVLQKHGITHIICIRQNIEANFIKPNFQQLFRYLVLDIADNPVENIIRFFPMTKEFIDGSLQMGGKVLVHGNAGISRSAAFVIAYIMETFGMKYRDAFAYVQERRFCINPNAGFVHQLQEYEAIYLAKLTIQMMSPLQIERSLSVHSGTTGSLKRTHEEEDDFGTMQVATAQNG
UniProt Q8TF20: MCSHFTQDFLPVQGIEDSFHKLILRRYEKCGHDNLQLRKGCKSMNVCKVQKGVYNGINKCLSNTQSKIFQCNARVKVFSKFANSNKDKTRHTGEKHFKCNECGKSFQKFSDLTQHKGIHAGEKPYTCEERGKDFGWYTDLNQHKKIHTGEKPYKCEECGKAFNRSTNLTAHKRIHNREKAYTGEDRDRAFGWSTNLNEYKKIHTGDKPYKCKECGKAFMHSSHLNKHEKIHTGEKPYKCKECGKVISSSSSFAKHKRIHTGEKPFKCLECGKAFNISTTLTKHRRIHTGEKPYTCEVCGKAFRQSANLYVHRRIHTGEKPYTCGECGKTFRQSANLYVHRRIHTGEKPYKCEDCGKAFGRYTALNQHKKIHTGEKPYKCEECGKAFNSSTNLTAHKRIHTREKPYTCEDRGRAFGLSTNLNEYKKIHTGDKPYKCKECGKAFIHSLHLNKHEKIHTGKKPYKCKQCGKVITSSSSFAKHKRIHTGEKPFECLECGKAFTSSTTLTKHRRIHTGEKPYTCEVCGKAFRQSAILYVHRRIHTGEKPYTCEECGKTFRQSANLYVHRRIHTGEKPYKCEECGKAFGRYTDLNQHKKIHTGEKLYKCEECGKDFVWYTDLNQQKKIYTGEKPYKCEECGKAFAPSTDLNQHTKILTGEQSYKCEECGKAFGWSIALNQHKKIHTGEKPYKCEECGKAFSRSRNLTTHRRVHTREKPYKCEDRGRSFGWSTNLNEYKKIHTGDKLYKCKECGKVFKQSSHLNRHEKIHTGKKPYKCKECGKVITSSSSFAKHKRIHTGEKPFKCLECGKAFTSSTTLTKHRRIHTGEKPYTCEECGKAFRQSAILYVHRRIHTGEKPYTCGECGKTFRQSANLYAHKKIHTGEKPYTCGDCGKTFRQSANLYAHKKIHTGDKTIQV
UniProt Q8WVV9: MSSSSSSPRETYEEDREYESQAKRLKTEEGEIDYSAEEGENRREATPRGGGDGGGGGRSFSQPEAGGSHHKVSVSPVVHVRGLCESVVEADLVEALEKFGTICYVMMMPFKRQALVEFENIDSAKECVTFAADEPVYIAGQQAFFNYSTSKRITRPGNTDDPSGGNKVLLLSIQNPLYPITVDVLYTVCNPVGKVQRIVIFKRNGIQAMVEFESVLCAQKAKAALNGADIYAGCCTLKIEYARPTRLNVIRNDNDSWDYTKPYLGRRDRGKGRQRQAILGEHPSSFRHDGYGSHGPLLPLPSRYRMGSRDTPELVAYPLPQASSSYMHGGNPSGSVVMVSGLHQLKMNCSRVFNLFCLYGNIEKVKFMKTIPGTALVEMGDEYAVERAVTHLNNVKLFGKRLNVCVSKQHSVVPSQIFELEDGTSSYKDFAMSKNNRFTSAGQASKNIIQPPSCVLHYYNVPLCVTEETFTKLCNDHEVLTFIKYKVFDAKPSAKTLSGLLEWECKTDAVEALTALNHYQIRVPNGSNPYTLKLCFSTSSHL
UniProt Q8TAT6: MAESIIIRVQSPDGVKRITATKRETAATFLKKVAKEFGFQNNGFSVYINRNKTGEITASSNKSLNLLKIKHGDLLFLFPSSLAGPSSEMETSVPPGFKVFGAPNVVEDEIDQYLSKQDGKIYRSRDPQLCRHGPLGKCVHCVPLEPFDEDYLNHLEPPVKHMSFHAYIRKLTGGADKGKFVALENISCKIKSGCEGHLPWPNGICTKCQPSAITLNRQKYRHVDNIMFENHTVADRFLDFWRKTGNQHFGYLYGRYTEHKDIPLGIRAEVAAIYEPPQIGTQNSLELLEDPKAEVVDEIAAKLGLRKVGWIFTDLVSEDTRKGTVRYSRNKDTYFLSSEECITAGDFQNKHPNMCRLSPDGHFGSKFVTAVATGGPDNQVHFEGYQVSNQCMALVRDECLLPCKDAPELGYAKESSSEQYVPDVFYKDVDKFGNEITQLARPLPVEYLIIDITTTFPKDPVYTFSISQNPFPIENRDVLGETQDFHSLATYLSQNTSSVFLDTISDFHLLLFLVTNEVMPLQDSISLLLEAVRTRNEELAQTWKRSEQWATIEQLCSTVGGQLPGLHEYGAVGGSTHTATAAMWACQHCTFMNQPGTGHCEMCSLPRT
UniProt Q8TF05: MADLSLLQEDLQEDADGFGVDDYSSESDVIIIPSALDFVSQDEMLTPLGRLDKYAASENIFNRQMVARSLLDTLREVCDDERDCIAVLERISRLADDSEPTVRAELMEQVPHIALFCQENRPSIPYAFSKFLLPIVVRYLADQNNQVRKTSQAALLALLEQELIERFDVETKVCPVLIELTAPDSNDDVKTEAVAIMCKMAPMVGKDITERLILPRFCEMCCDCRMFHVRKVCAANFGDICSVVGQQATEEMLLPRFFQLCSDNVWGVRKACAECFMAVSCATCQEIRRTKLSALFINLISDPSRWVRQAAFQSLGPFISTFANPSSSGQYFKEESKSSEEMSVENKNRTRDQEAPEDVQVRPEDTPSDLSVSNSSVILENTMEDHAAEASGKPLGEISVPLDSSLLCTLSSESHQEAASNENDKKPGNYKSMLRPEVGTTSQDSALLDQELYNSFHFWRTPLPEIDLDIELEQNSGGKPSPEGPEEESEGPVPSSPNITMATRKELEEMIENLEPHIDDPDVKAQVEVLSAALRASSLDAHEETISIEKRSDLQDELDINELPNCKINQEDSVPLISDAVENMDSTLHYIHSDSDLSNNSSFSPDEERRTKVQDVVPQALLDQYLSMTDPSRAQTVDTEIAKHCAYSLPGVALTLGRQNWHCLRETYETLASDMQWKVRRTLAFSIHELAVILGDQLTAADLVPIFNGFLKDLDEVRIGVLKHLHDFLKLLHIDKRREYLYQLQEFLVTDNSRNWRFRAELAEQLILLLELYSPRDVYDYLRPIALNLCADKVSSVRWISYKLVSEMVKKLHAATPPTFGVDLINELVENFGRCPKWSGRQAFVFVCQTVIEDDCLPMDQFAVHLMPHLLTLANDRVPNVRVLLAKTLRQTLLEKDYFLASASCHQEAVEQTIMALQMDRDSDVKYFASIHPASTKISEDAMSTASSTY

These targets were tested with Cc1nc(Nc2ncc(C(=O)Nc3c(C)cccc3Cl)s2)cc(N2CCN(CCO)CC2)n1 [dasatinib] (assay: log2 fold change of tryptic peptide abundance, ligand vs vehicle (limited proteolysis) (log2 ratio); higher = more trypsin-susceptible (destabilized)). Conditions: ligand concentration: 5 uM; sample: K562 cleared lysate.

Target	log2 fold change
SNX33 (peptide sequence: YKHFDWLYNR, peptide start residue: 267) (UniProt Q8WV41)	0.137
UniProt Q8WV93 (peptide sequence: ALAVCHGPLDHYDFLIK, peptide start residue: 68)	0.582
DMXL2 (peptide sequence: EIAALHEICNHESVIK, peptide start residue: 2080) (UniProt Q8TDJ6)	-0.49
CEP76 (peptide sequence: GIIDDVMK, peptide start residue: 60) (UniProt Q8TAP6)	-0.141
RTF1 (peptide sequence: NQQMDPFTRR, peptide start residue: 588) (UniProt Q92541)	0.409
WDR66 (peptide sequence: YLVFINR, peptide start residue: 861) (UniProt Q8TBY9)	-0.0458
EDARADD (peptide sequence: IKLDPCHPTVK, peptide start residue: 127) (UniProt Q8WWZ3)	-0.0938
IP6K1 (peptide sequence: GVLLEPFIHQVGGHSSMMR, peptide start residue: 23) (UniProt Q92551)	0.221
DLG5 (peptide sequence: DAGPQGLHPSVQHQGR, peptide start residue: 1215) (UniProt Q8TDM6)	-0.564
FBXO30 (peptide sequence: KSYENLSR, peptide start residue: 105) (UniProt Q8TB52)	0.434
STYX (peptide sequence: SLSVHSGTTGSLKR, peptide start residue: 191) (UniProt Q8WUJ0)	0.00906
SNIP1 (peptide sequence: YSEPPEAR, peptide start residue: 246) (UniProt Q8TAD8)	0.304
STON2 (peptide sequence: GDNQILQHHVLTR, peptide start residue: 586) (UniProt Q8WXE9)	0.553
PSPC1 (peptide sequence: GFVEFAAKPPARK, peptide start residue: 199) (UniProt Q8WXF1)	0.162
UniProt Q8TD17 (peptide sequence: STYADEELVIK, peptide start residue: 255)	0.0366
RP9 (peptide sequence: SSRPGREDVGAAGAR, peptide start residue: 2) (UniProt Q8TA86)	0.256
UniProt Q8TF30 (peptide sequence: SLDEDDLGPR, peptide start residue: 263)	0.199
UniProt Q8TF20 (peptide sequence: SFGWSTNLNEYKK, peptide start residue: 721)	-0.177
UBA3 (peptide sequence: SPAITATLEGK, peptide start residue: 399) (UniProt Q8TBC4)	-0.142

Target	log2 fold change
GAB3 (peptide sequence: EDEESYIEMEEHR, peptide start residue: 501) (UniProt Q8WWW8)	1.04
UniProt Q8TBF2 (peptide sequence: EHACVVAGLR, peptide start residue: 31)	0.688
MITD1 (peptide sequence: QDPQSTAAATVLKR, peptide start residue: 8) (UniProt Q8WV92)	-0.155
CHD6 (peptide sequence: ESFLAPVFTKDEQK, peptide start residue: 2163) (UniProt Q8TD26)	-0.411
UniProt Q8WVV9 (peptide sequence: NDNDSWDYTKPYLGRR, peptide start residue: 252)	-0.975
NPLOC4 (peptide sequence: KTGNQHFGYLYGR, peptide start residue: 243) (UniProt Q8TAT6)	-0.268
DIS3L (peptide sequence: DYVVTFPSKEEVQSQGK, peptide start residue: 344) (UniProt Q8TF46)	-0.625
PPP4R1 (peptide sequence: YFASIHPASTK, peptide start residue: 927) (UniProt Q8TF05)	-0.437
GTSF1 (peptide sequence: CRKNHPDVASK, peptide start residue: 37) (UniProt Q8WW33)	0.368
NANP (peptide sequence: LSKECFHPYNTCITDLR, peptide start residue: 56) (UniProt Q8TBE9)	-0.36
DCUN1D4 (peptide sequence: SCSSSDCFNK, peptide start residue: 50) (UniProt Q92564)	0.179
HSD17B8 (peptide sequence: VGNVGQTNYAASK, peptide start residue: 161) (UniProt Q92506)	-0.0771
DTD1 (peptide sequence: AKGPSESSK, peptide start residue: 175) (UniProt Q8TEA8)	-0.0662
ATRIP (peptide sequence: PGPPPGTGHPPSKR, peptide start residue: 20) (UniProt Q8WXE1)	-0.543
UniProt Q8WUH1 (peptide sequence: NCHHVIAR, peptide start residue: 63)	0.61
EXOC6 (peptide sequence: STNLLLTR, peptide start residue: 520) (UniProt Q8TAG9)	-0.186
TGFBRAP1 (peptide sequence: AFTLVSAVER, peptide start residue: 6) (UniProt Q8WUH2)	-0.409
UniProt Q8WXA9 (peptide sequence: VREAQSFISAAIEPESGK, peptide start residue: 166)	0.119

In another format: results already given
Target,log2 fold change
"HSD17B8 (peptide sequence: VGNVGQTNYAASK, peptide start residue: 161) (UniProt Q92506)",-0.0771
"UniProt Q8WUH1 (peptide sequence: NCHHVIAR, peptide start residue: 63)",0.61
